The other results are listed elsewhere or left out.

By UniProt entry, the sequences of proteins in these tests, tags left out. Where a name states a change or a piece, a line headed by the entry shows the natural chain unless it says otherwise.
UniProt Q8IW92: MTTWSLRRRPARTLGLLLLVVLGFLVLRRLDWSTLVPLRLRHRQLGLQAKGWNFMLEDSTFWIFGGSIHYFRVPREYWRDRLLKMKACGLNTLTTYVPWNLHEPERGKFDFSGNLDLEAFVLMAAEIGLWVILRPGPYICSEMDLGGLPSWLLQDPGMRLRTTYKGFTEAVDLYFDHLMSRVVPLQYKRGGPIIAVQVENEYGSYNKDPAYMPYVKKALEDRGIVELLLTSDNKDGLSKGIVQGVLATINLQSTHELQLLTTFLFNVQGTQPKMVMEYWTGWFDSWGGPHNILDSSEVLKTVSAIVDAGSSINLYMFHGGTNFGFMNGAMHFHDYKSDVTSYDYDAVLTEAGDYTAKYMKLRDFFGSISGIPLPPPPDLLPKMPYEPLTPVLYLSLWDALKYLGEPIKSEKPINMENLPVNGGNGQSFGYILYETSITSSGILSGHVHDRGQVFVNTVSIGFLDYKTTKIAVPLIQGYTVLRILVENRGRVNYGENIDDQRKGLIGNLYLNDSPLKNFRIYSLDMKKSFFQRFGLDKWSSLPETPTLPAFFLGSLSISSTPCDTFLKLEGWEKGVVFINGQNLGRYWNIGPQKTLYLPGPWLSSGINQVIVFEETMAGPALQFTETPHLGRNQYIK
UniProt P32189: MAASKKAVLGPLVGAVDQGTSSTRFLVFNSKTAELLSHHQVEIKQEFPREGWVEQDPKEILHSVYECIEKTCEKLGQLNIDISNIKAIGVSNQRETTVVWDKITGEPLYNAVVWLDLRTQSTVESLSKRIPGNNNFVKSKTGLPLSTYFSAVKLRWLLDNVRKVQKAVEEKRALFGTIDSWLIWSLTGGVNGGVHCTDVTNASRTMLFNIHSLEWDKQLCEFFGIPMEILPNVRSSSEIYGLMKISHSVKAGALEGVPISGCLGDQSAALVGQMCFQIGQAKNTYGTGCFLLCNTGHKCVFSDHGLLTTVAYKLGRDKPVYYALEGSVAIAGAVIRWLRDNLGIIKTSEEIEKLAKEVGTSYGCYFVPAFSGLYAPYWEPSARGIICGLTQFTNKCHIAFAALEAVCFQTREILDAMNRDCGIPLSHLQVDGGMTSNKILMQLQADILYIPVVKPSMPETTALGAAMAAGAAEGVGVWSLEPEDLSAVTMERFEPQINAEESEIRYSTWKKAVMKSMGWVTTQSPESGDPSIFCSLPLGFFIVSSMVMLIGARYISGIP
UniProt Q9NQX3: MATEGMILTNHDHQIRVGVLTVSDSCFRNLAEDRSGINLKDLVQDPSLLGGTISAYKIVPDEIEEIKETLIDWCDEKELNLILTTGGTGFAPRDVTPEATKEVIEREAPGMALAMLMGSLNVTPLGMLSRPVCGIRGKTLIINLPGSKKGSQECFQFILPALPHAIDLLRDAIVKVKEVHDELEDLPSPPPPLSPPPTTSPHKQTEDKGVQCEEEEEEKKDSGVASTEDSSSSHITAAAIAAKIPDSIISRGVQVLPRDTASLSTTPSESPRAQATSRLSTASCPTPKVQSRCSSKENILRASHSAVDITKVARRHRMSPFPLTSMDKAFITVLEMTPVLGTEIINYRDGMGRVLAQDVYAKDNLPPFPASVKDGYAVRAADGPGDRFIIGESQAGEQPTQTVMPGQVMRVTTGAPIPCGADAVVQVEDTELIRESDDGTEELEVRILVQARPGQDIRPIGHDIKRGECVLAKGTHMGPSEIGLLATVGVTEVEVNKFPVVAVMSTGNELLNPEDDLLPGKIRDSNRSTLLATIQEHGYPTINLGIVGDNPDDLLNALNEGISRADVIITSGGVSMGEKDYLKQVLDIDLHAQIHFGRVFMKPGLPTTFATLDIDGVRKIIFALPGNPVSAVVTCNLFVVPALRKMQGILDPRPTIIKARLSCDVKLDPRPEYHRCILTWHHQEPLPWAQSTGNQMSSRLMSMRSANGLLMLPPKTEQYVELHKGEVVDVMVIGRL
UniProt P36959: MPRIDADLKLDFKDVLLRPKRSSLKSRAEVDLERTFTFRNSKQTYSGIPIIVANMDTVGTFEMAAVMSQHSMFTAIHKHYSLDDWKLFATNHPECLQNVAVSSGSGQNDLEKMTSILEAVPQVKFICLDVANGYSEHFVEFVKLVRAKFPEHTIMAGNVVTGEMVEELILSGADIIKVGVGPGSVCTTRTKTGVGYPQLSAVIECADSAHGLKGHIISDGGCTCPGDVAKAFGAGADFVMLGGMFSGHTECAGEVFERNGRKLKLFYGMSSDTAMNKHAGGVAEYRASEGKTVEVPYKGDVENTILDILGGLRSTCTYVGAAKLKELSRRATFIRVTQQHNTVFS
UniProt Q14749: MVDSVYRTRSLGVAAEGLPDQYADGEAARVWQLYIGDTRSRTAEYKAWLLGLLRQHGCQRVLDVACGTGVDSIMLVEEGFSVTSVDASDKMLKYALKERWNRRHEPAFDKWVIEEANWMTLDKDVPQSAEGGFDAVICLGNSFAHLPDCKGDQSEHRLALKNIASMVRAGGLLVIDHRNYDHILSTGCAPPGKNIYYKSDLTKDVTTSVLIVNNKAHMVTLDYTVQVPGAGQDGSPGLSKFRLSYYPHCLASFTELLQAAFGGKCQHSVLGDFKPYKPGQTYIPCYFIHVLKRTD
UniProt O60547: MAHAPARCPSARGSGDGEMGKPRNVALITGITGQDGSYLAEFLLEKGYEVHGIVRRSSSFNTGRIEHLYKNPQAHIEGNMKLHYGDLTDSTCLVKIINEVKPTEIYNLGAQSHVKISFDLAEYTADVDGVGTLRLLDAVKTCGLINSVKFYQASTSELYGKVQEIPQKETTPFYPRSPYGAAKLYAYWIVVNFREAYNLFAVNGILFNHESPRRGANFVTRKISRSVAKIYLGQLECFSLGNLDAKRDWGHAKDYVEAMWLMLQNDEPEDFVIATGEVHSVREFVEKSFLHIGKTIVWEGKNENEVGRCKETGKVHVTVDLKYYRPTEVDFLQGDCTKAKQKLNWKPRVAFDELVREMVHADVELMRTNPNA
UniProt Q8TBA6: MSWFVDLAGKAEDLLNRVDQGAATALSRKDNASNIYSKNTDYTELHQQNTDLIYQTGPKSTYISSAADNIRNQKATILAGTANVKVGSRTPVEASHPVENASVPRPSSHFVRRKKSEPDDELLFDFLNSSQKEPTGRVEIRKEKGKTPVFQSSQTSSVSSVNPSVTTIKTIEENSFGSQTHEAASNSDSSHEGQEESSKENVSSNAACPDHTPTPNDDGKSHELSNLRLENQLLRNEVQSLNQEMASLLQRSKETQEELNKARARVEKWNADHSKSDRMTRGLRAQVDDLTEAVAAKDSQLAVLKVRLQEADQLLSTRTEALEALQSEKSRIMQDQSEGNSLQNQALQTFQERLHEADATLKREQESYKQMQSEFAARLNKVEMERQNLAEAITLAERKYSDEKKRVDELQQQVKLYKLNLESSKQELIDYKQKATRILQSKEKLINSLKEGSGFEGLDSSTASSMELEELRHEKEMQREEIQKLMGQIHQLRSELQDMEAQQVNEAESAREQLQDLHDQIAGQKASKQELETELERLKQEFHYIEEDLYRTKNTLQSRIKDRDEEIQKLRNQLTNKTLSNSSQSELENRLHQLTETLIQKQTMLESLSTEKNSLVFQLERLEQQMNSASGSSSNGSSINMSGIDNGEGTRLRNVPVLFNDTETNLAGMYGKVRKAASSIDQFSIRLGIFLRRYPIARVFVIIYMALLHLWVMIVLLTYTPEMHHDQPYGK
UniProt Q4V328: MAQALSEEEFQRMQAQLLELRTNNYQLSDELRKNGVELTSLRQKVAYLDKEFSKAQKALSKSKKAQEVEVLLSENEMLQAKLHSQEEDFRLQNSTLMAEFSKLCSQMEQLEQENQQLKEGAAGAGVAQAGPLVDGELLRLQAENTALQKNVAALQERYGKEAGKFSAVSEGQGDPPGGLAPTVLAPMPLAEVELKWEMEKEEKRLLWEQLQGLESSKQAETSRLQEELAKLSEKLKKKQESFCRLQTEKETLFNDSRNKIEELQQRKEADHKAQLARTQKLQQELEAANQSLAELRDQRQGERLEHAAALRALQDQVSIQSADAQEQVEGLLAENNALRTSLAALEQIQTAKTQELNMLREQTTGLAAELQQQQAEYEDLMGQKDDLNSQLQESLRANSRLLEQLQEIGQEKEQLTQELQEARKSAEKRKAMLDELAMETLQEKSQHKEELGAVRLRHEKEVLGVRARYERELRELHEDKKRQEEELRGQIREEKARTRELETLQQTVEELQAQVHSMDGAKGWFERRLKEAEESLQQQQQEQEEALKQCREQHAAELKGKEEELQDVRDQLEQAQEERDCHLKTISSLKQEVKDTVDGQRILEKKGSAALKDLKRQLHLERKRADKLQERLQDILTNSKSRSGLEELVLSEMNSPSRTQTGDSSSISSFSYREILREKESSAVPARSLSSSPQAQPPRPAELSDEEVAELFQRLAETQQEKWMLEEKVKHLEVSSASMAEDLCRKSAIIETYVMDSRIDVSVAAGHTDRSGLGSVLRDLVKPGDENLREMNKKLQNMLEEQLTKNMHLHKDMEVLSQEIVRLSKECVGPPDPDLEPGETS
UniProt Q9HAV7: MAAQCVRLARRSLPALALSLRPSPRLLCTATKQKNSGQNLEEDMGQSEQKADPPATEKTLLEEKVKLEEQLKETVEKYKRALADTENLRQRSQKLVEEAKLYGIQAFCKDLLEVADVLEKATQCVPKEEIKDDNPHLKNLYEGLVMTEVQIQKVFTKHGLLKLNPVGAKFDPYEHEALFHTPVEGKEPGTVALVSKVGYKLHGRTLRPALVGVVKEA
UniProt Q03113, whole entry, looked up: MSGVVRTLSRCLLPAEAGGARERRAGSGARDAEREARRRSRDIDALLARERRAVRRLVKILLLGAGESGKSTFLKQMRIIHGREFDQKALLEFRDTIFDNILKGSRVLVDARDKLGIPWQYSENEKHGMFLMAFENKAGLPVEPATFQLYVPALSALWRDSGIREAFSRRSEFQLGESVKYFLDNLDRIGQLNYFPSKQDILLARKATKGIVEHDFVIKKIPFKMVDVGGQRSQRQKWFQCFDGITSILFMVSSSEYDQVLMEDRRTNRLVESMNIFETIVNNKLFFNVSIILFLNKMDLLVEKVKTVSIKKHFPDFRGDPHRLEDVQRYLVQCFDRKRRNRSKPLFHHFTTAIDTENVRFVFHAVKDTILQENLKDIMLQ
UniProt Q5VW38: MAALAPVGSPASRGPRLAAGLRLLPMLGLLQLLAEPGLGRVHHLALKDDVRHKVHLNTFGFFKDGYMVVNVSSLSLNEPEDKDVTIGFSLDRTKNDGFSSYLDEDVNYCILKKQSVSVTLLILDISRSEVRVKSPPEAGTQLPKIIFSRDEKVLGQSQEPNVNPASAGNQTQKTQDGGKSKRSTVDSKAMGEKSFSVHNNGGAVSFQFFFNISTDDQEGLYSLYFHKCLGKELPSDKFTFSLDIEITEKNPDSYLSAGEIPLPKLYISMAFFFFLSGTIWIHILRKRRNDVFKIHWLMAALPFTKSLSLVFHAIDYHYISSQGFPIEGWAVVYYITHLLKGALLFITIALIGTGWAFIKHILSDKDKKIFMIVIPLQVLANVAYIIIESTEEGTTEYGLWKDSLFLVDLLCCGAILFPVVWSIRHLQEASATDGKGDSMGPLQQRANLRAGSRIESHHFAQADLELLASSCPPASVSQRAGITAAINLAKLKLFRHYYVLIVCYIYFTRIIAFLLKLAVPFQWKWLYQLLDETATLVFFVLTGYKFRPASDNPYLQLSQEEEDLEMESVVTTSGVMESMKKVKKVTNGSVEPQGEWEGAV
UniProt P46926: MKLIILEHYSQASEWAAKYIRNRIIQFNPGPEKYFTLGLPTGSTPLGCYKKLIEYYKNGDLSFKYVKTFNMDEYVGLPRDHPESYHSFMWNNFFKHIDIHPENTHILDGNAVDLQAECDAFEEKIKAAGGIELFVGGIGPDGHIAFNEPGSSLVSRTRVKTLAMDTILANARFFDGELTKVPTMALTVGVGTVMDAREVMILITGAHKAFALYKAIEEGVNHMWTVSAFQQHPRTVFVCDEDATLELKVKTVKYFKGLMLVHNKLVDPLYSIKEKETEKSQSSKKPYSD
UniProt Q04760: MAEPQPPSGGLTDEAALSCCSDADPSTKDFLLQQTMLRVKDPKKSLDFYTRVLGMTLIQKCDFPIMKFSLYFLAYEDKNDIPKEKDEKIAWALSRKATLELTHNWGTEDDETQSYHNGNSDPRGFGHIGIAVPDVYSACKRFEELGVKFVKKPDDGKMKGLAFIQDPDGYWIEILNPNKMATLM
UniProt O95249: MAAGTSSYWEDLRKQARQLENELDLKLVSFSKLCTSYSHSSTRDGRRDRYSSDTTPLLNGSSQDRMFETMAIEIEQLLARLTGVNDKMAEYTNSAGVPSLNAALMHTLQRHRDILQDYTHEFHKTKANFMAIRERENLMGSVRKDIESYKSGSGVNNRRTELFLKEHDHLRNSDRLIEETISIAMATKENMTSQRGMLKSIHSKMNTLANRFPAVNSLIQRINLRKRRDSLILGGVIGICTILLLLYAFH
UniProt Q7Z5G4, whole entry, looked up: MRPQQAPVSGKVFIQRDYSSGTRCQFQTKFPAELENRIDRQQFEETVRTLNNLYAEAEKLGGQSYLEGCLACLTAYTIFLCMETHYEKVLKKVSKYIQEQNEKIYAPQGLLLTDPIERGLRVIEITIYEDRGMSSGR

Compound in this assay: COC(=O)N[C@@H](C)CNc1nccc(-c2cn(C(C)C)nc2-c2cc(Cl)cc(NS(C)(=O)=O)c2F)n1 [encorafenib]
Briefly: log2 fold change, soluble protein after heating vs DMSO (PISA); higher = thermal stabilisation; K562 cells, 10 uM, 30 min; active = over 0.2 and 3.5 SD of the protein, either way, in both replicates (recomputed). The essentials: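 Quantification of soluble protein used TMTpro 16plex LC-MS/MS, with channel sums equalised. Samples were the supernatant after 21,000xg for 90 min of pooled aliquots from K562 cells (2×10^6 cells/mL) treated with 10 μM compound for 30 min, heated for 3 min over 48°C-58°C, and extracted in PBS with 0.5% NP-40 at 4°C. Values, from duplicates, describe thermal stability against control samples on a log2 fold-change scale.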
GNA13 (UniProt Q14344): the log2 fold change was inactive: 0.

As for GLB1L2 (UniProt Q8IW92), the log2 fold change was inactive: 0.027.

Take GK (UniProt P32189): the log2 fold change is inactive: -0.012.

GPHN isoform 2 (UniProt Q9NQX3): the log2 fold change is inactive: -0.039.

As to GNPNAT1 (UniProt Q96EK6), the log2 fold change was inactive: -0.001.

As to GMPR (UniProt P36959), the log2 fold change was inactive: -0.013.

Regarding GNMT (UniProt Q14749), the log2 fold change is inactive: -0.107.

For GMDS (UniProt O60547), the log2 fold change is inactive: -0.007.

On to GNPDA2 (UniProt Q8TDQ7), for which the log2 fold change is inactive: 0.007.

Consider GPBP1L1 (UniProt Q9HC44), for which the log2 fold change was inactive: -0.033.

Turning to GM2A (UniProt P17900), the log2 fold change is inactive: -0.1.

Take GMPPA (UniProt Q96IJ6): the log2 fold change was inactive: -0.031.

GOLGA5 (UniProt Q8TBA6): the log2 fold change was inactive: -0.036.

As to GRIPAP1 (UniProt Q4V328), the log2 fold change was inactive: 0.057.

Regarding GRPEL1 (UniProt Q9HAV7), the log2 fold change was inactive: -0.02.

In the case of GOT2 (UniProt P00505), the log2 fold change is inactive: -0.014.

GNA12 (UniProt Q03113): the log2 fold change was inactive: -0.096.

With GPR107 (UniProt Q5VW38), the log2 fold change is inactive: 0.

In the case of GNPDA1 (UniProt P46926), the log2 fold change was inactive: -0.019.

For GLO1 (UniProt Q04760), the log2 fold change is inactive: -0.01.

On to GOSR1 (UniProt O95249), for which the log2 fold change is inactive: 0.023.

Consider GOLGA7 (UniProt Q7Z5G4), for which the log2 fold change was inactive: 0.07.

Consider GOSR2 isoform 2 (UniProt O14653), for which the log2 fold change was inactive: -0.128.

Source of the values: the supplement of paper PMC10849652.
